The record followed here is patent US20190161555A1.

Results are given in words; binding and its absence hold for the method and conditions named. Binding calls can cover weak binding; strength is not graded here.

Assay [1] concerns the target cynomolgus 5T4 (Macaca mulatta (cynomolgus)). The assay is described as follows: flow cytometry, CHO cells transfected with cynomolgus 5T4. For orientation: Flow cytometry measures light scatter and fluorescence of single cells or particles in a stream.
For assay [2] the target is unchanged. Description: flow cytometry on CHO cells transfected with cynomolgus 5T4, each curve normalised to its own maximum.

B1: 1212/1213 (antibody, IgG1, V domains shown)
VH: EVQLLESGGGLVQPGGSLRLSCAASGFTFSSYAMSWVRQAPGKGLEWVSYISSYGGYTSYADSVKGRFTISRDNSKNTLYLQMNSLRAEDTAVYYCARYHSGVLDYWGQGTLVTVSS
VL: DIQMTQSPSSLSASVGDRVTITCRASQSISSYLNWYQQKPGKAPKLLIYAASSLQSGVPSRFSGSGSGTDFTLTISSLQPEDFATYYCQQYYYHYLLTFGQGTKLEIK
Consider B1, for which the binding result in assay [1] and in assay [2] was “binds” each time.

B2: 1206/1207 (antibody, V domains shown)
VH: EVQLLESGGGLVQPGGSLRLSCAASGFTFSGSSMSWVRQAPGKGLEWVSSIYYSGSGTYYADSVKGRFTISRDNSKNTLYLQMNSLRAEDTAVYYCARYGRNVHPYNLDYWGQGTLVTVSS
VL: DIQMTQSPSSLSASVGDRVTITCRASQSISSYLNWYQQKPGKAPKLLIYAASSLQSGVPSRFSGSGSGTDFTLTISSLQPEDFATYYCQQGYYYLPTFGQGTKLEIK
In the case of B2, the binding entry in assay [1] and in assay [2] was “binds” in each case.
